At least one structure is not confirmed: it was looked up by name or label, or the drawing left a doubt.
Tested on: MDA-MB-231 tumor cells
Assay: Three-chamber RTCA migration assay: MDA-MB-231 tumor cells co-cultured with palbociclib-treated HUVEC cells
Type: cell-based, human
Conditions: HUVEC cells in bottom chamber treated with palbociclib at the indicated doses vs vehicle; MDA-MB-231 in top chamber; FIG. 6B

Question: How did the “Migration of MDA-MB-231 tumor cells monitored in real time” value turn out when `CC(=O)c1c(C)c2cnc(Nc3ccc(N4CCNCC4)cn3)nc2n(C2CCCC2)c1=O` [palbociclib] was run?
Answer: The value was “dose-dependent increase in cell migration”.
